No constants are given. Whether binding was seen depends on the method and setting. In cells and extracts the contact can be indirect. Some results given as binding are weak or reduced against the parent protein; the word gives no strength.
T1: Full-length HNF4α overexpressed in MIN6 cells (human) (UniProt P41235)
T1 sequence: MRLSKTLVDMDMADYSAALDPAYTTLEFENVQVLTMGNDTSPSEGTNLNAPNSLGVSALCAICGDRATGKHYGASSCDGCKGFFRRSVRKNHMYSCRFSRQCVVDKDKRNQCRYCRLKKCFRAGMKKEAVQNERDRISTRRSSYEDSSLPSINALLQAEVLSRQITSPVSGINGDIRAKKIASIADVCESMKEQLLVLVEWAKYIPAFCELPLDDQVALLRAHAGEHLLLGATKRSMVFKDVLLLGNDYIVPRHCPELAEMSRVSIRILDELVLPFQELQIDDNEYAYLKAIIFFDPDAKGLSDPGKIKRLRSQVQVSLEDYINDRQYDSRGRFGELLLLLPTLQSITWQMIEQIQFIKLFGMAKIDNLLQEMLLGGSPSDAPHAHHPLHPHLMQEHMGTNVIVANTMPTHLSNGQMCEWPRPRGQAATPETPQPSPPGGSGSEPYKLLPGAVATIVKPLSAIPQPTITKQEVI

B1: Full-length MED25 overexpressed in MIN6 cells (protein, UniProt Q71SY5 1-747)
chain: MVPGSEGPARAGSVVADVVFVIEGTANLGPYFEGLRKHYLLPAIEYFNGGPPAETDFGGDYGGTQYSLVVFNTVDCAPESYVQCHAPTSSAYEFVTWLDGIKFMGGGGESCSLIAEGLSTALQLFDDFKKMREQIGQTHRVCLLICNSPPYLLPAVESTTYSGCTTENLVQQIGERGIHFSIVSPRKLPALRLLFEKAAPPALLEPLQPPTDVSQDPRHMVLVRGLVLPVGGGSAPGPLQSKQPVPLPPAAPSGATLSAAPQQPLPPVPPQYQVPGNLSAAQVAAQNAVEAAKNQKAGLGPRFSPITPLQQAAPGVGPPFSQAPAPQLPPGPPGAPKPPPASQPSLVSTVAPGSGLAPTAQPGAPSMAGTVAPGGVSGPSPAQLGAPALGGQQSVSNKLLAWSGVLEWQEKPKPASVDANTKLTRSLPCQVYVNHGENLKTEQWPQKLIMQLIPQQLLTTLGPLFRNSRMVQFHFTNKDLESLKGLYRIMGNGFAGCVHFPHTAPCEVRVLMLLYSSKKKIFMGLIPYDQSGFVNGIRQVITNHKQVQQQKLEQQQRGMGGQQAPPGLGPILEDQARPSQNLLQLRPPQPQPQGTVGASGATGQPQPQGTAQPPPGAPQGPPGAASGPPPPGPILRPQNPGANPQLRSLLLNPPPPQTGVPPPQASLHHLQPPGAPALLPPPHQGLGQPQLGPPLLHPPPAQSWPAQLPPRAPLPGQMLLSGGPRGPVPQPGLQPSVMEDDILMDLI
B2: MED25 NR (LXXLL mutant) overexpressed in MIN6 cells (protein, UniProt Q71SY5 1-747)
chain: MVPGSEGPARAGSVVADVVFVIEGTANLGPYFEGLRKHYLLPAIEYFNGGPPAETDFGGDYGGTQYSLVVFNTVDCAPESYVQCHAPTSSAYEFVTWLDGIKFMGGGGESCSLIAEGLSTALQLFDDFKKMREQIGQTHRVCLLICNSPPYLLPAVESTTYSGCTTENLVQQIGERGIHFSIVSPRKLPALRLLFEKAAPPALLEPLQPPTDVSQDPRHMVLVRGLVLPVGGGSAPGPLQSKQPVPLPPAAPSGATLSAAPQQPLPPVPPQYQVPGNLSAAQVAAQNAVEAAKNQKAGLGPRFSPITPLQQAAPGVGPPFSQAPAPQLPPGPPGAPKPPPASQPSLVSTVAPGSGLAPTAQPGAPSMAGTVAPGGVSGPSPAQLGAPALGGQQSVSNKLLAWSGVLEWQEKPKPASVDANTKLTRSLPCQVYVNHGENLKTEQWPQKLIMQLIPQQLLTTLGPLFRNSRMVQFHFTNKDLESLKGLYRIMGNGFAGCVHFPHTAPCEVRVLMLLYSSKKKIFMGLIPYDQSGFVNGIRQVITNHKQVQQQKLEQQQRGMGGQQAPPGLGPILEDQARPSQNLLQLRPPQPQPQGTVGASGATGQPQPQGTAQPPPGAPQGPPGAASGPPPPGPILRPQNPGANPQLRSAALNPPPPQTGVPPPQASLHHLQPPGAPALLPPPHQGLGQPQLGPPLLHPPPAQSWPAQLPPRAPLPGQMLLSGGPRGPVPQPGLQPSVMEDDILMDLI

Target: T1, Full-length HNF4α overexpressed in MIN6 cells (human)
Experiment: co-IP; MIN6 cells transfected with HNF4α and MED25 (or MED25 NR); lysates in 50 mM Tris pH 7.4, 150 mM NaCl, 1 mM EDTA, 0.5% NP-40, 5% glycerol; immunoprecipitation with HNF4α antibody or control IgG, Western blot with MED25 antibody

Binder	binding
B1	binds
B2	binds weakly

From publication PMC3431373
